This is an account of results in US20250250350A1.

Chains of the proteins cited; added tags and fusions are not shown. Residues count along the entry.
UniProt P10696, residues 20-503: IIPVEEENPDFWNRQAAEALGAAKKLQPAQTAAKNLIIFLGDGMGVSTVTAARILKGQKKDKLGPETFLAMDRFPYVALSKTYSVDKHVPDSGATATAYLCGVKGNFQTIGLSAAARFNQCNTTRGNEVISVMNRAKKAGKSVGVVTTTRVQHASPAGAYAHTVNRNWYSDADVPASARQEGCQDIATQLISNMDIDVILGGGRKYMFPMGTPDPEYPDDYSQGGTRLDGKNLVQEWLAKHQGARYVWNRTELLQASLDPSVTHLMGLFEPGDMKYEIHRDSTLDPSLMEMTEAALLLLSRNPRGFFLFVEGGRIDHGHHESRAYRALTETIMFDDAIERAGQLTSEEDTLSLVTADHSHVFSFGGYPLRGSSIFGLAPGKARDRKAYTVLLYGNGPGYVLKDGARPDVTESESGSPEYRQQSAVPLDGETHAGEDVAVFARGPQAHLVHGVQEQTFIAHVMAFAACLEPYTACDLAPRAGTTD

The target of assay [1] is ALPG-AF647 (human) (UniProt P10696). The experiment in a line: flow cytometry, engineered primary T cells after manufacture (no ALPG priming), stained with ALPG-AF647 (PrimeR axis) and MSLN-Bio / streptavidin-PE (CAR axis). A general note: In flow cytometry, cells or beads pass a laser one at a time.
For assay [2] the target is unchanged. The experiment in a line: flow cytometry of engineered primary T cells; transgene+ by staining with ALPG-AF647 and MSLN-Bio / streptavidin-PE.

These are yes or no findings as the source states them, for the method shown. Some results given as binding are weak or reduced against the parent protein; the word gives no strength.

B1: ALPG/P priming receptor of the AB-1013, AB-1014 and AB-1015 circuits (protein)
chain: DIQMTQSPSSLSASVGDRVTITCRASENIYSYVAWYQQKPGKAPKLLIYNAKSLASGVPSRFSGSGSGTDFTLTISSLQPEDFATYYCQHHYVSPWTFGGGTKLEIKGGGGSGGGGSGGGGSQVQLQESGPGLVKPSETLSLTCTVSGFSLTSYGVSWIRQPAGKGLEWIGVIWEDGSTNYHSALISRVTMSVDTSKNQFSLKLSSVTAADTAVYYCARPHYGSSYVGAMEYWGAGTTVTVSSATTTPAPRPPTPAPTIASQPLSLRPEACFMYVAAAAFVLLFFVGCGVLLSRKRRRQHGQLWFPEGFKVSEASKKKRREPLGEDSVGLKPLKNAMVSKLSQLQTELLAALLESGLSKEALLQALGEPGPYLLAGEGPLDKGESCGGGRGELAELPNGLGETRGSEDETDDDGEDFTPPILKELENLSPEEAAHQKAVVETLLQEDPWRVAKMVKSYLQQHNIPQREVVDTTGLNQSHLSQHLNKGTPMKTQKRAALYTWYVRKQREVAQQFTHAGQGGLIEEPTGDELPTKKGRRNRFKWGPASQQILFQAYERQKNPSKEERETLVEECNRAECIQRGVSPSQAQGLGSNLVTEVRVYNWFANRRKEEAFRHKLAMTCRDEFPTMVFPSGQISQASALAPAPPQVLPQAPAPAPAPAMVSALAQAPAPVPVLAPGPPQAVAPPAPKPTQAGEGTLSEALLQLQFDDEDLGALLGNSTDPAVFTDLASVDNSEFQQLLNQGIPVAPHTTEPMLMEYPEAITRLVTGAQRPPDPAPAPLGAPGLPNGLLSGDEDFSSIADMDFSALLSQISS
With B1, the binding entry with ALPG-AF647 (human) [1] and in the assay with ALPG-AF647 (human) [2] was “binds” throughout.
